Data: patent US20220233542A1, “COMPOSITIONS AND METHODS FOR PREVENTING OR TREATING HUMAN IMMUNODEFICIENCY VIRUS ASSOCIATED PULMONARY ARTERIAL HYPERTENSION” (University of Georgia Research Foundation, priority 2019, published 2022)

Assays:
[1] = test system: TNF-α
[2] = test system: MIP-1α
[3] = SIV/Statin Group 2 compared with SIV-PAH+ controls

CC(C)c1c(C(=O)Nc2ccccc2)c(-c2ccccc2)c(-c2ccc(F)cc2)n1CC[C@@H](O)C[C@@H](O)CC(=O)O [atorvastatin]
terminal levels of plasma TNF-α [1, 3]: significantly lower | terminal plasma levels of TNF-α ([1]; SIV/Statin Group 3): not significantly reduced | terminal levels of plasma MIP-1α [2, 3]: significantly lower | terminal plasma levels of MIP-1α ([2]; SIV/Statin Group 3): not significantly reduced
